Data: US20220003782A1 (METAFORA BIOSYSTEMS, published 2022)
These are yes or no findings as the source states them, for the method shown. Some results given as binding are weak or reduced against the parent protein; the word gives no strength. Where a sequence is shown, tags or fusion partners need not be part of it.

Biological target: T1, sodium-dependent multivitamin transporter / solute carrier family 5 member 6 (SMVT/SLC5A6) (human) (UniProt Q9Y289)
T1 sequence: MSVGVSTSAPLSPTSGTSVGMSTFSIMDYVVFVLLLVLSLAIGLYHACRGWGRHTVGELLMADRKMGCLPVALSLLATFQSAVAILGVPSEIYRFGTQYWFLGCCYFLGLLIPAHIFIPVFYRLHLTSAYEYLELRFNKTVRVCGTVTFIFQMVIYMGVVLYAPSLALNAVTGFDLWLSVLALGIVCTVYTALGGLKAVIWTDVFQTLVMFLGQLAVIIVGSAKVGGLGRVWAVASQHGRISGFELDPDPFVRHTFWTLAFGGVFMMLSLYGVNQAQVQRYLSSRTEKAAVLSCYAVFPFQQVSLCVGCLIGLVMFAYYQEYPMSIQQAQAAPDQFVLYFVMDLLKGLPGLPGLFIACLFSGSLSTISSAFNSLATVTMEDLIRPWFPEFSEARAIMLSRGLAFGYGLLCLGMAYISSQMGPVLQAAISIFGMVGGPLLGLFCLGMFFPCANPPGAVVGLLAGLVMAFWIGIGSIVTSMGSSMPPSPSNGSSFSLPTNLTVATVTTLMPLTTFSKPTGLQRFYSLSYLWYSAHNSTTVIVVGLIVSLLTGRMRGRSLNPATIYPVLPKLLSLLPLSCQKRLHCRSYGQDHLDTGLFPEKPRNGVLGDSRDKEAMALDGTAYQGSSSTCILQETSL
Test: flow cytometry on HEK 293T cells with SMVT overexpression or siRNA knockdown

B1: PERV-B RBD ligand fused to a mouse Fc fragment (SEQ ID NO: 13) (Fc fusion)
chain: KRLIDSSNPHRPLSLTWLIIDPDTGVTVNSTRGVAPRGTWWPELHFCLRLINPAVKSTPPNLVRSYGFYCCPGTEKEKYCGGSEESFCRRWSCVTSNDGDWKWPISLQDRVKFSFVNSGPGKYKVMKLYKDKSCSPSDLDYLKISFTEKGKQENIQKWINGMSWGIVFYKYGGGAGSTLTIRLRIEAGTEPPVAVGSVDVPRDCGCKPCICTVPEVSSVFIFPPKPKDVLTITLTPKVTCVVVDISKDDPEVQFSWFVDDVEVHTAQTQPREEQFNSTFRSVSELPIMHQDWLNGKEFKCRVNSAAFPAPIEKTISKTKGRPKAPQVYTIPPPKEQMAKDKVSLTCMITDFFPEDITVEWQWNGQPAENYKNTQPIMDTDGSYFVYSKLNVQKSNWEAGNTFTCSVLHEGLHNHHTEKSLSHSPGK
binding: binds
